Source: PubChem BioAssay AID485353 (National Center for Advancing Translational Sciences (NCATS), 2010)
Out of some 330,000 compounds screened, about 610 (0.18%) were called active. Inconclusive results, whose numbers are uncertain, are shown with a selection of clear calls. The call rests on the fitted dose curve. A potency beside an inconclusive call is a rough fit, not a confirmed value.

assay: qHTS of Yeast-based Assay for SARS-CoV PLP; further: nearly all actives have a fitted effect of over 55% in size; on activity, positive = growth rescue: 0% is about no effect; conditions: S. cerevisiae expressing SARS-CoV PLpro; Potency: growth rescue; activity, positive = growth rescue: at 32.9 µM (top of the series)
Potency means the concentration at half of the fitted maximal effect.

Row | Structure (SMILES) | Potency | activity, positive = growth rescue
1 | CCOc1ccc(NC(=S)N2CCN(S(C)(=O)=O)CC2)cc1 | inconclusive: 3.16 µM [activator, single point] | 
2 | CSC1=C(C#N)C(C)CC(=O)N1 (centres undefined) | inconclusive: 20 µM [activator, single point] | 
3 | CCCCOCCCn1c(N)c(C(=O)OC(C)COC)c2nc3ccccc3nc21 (centres undefined) |  | inactive: 7.62%
4 | O=C(OCCN1C(=O)c2ccccc2C1=O)c1ccco1 | inconclusive: 3.98 µM [activator, single point] | 
5 | COc1cc(C2CC(=O)N3CN(c4ccccc4C)CSC3=C2C#N)cc(OC)c1OC (centres undefined) | inconclusive: 20 µM [activator, single point] | 
6 | O=C(CCCn1c(=O)c2ccccc2n(CC(=O)NCc2ccco2)c1=O)NCc1ccco1 |  | inactive: 0.271%
7 | CCCn1c(=O)[nH]c(=O)c2c1nc(-c1ccc(OC(F)F)cc1)n2CCN1CCOCC1 | inconclusive: 20 µM [activator, single point] | 
8 | COC(=O)Nc1ccccc1C(=O)N1CCC(O)(c2ccc(Cl)cc2)CC1 | inconclusive: 3.98 µM [activator, single point] | 
9 | COc1ccc(N(CC(=O)Nc2cc(Cl)ccc2OC)S(=O)(=O)c2c(C)noc2C)cc1 | inconclusive: 3.16 µM [activator, single point] | 
10 | C=CCNC(=S)N/N=C/c1ccc(C)c([N+](=O)[O-])c1 | inconclusive: 20 µM [activator, single point] | 
11 | O=C(NS(=O)(=O)N1CCOCC1)C1=C(N2CCCC2)COC1=O | active: 3.55 µM | 
12 | COc1ccc2oc(C(=O)OCC(=O)N(C)CC(=O)Nc3ccc(F)cc3)c(C)c2c1 | inconclusive: 3.98 µM [activator, single point] | 
13 | Cc1nn(-c2ccccc2)c2c1C(=O)N(c1ccccc1)C(=O)C(C)(C)C2 | inconclusive: 3.55 µM [activator, partial curve] | 
14 | Cc1ccccc1-c1nc(CS(=O)CC(=O)N2CCC3(CC2)OCCO3)c(C)o1 (centres undefined) | inconclusive: 1.78 µM [activator, full curve, poor fit] | 
15 | Cc1cccc(-n2nnc(C(=O)NCc3ccco3)c2N)c1 | inconclusive: 3.98 µM [activator, single point] | 
16 | CCCCN(C(=O)CSc1c(C)c(C)cc(C)c1C)c1c(N)n(CCC)c(=O)[nH]c1=O |  | inactive: -0.799%
17 | CCC1CCCCN1S(=O)(=O)c1ccc(C(=O)Nc2nnc(-c3ccccc3Cl)o2)cc1 (centres undefined) | inconclusive: 22.4 µM [activator, partial curve] | 
18 | CCOC(=O)C1=C(C)NC(SCC(=O)OC)=C(C#N)C1c1ccc(C(=O)OC)cc1 (centres undefined) |  | inactive: 8.44%
19 | CCO/C=N/c1c(C#N)c2c(c(=S)n1C)COC(C)(C)C2 |  | inactive: 0.336%
20 | O=C(Cc1ccccc1)O/N=C1\CCCc2ccccc21 |  | inactive: -4.4%
21 | CCCCCNC(=O)c1ccc(NS(=O)(=O)c2ccc3[nH]c(=O)[nH]c3c2)cc1 | inconclusive: 20 µM [activator, single point] | 
22 | CN1CCN(C(=O)c2ccc(S(=O)(=O)c3ccc(Br)cc3)cc2)CC1 | active: 11.2 µM | 
23 | COc1ccc(C(=O)N=C2SC3CS(=O)(=O)CC3N2Cc2ccccc2)cc1OC (centres undefined) | inconclusive: 4.47 µM [activator, single point] | 
24 | Cc1oc(-c2ccccc2Cl)nc1CS(=O)(=O)CC(=O)NCCc1ccccc1 | inconclusive: 3.98 µM [activator, single point] | 
25 | CC(c1ccccn1)N(CCN(C)C)C(=S)Nc1ccccc1F (centres undefined) | inconclusive: 3.55 µM [activator, single point] | 

Row | Structure (SMILES) | Potency | activity, positive = growth rescue
26 | CCC(=O)N1CCc2cc(S(=O)(=O)CCC(=O)N3CCN(c4ccc(C(C)=O)cc4)CC3)ccc21 |  | inactive: 2.78%
27 | CCC/C(O)=N\S(=O)(=O)c1ccc(N=NN(C)C)cc1 | inconclusive: 20 µM [activator, single point] | 
28 | CCNc1nc(SCCOc2ccc(C)cc2)nc(N(C)C)n1 |  | inactive: -5.7%
29 | CC1(NC(=S)N(CCO)CCO)CCS(=O)(=O)C1 (centres undefined) | inconclusive: 2.82 µM [activator, partial curve, poor fit] | 
30 | N#Cc1ncc(Cc2ccccc2)nc1C#N | inconclusive: 3.16 µM [activator, single point] | 
31 | Cc1csc(NC(=O)CSc2nnc(-c3ccccc3)o2)n1 |  | inactive: -3.95%
32 | Cc1cc(C)cc(Nc2nc3ccccc3c(=O)[nH]2)c1 |  | inactive: -1.01%
33 | COc1ccc(C(=O)Cn2c(NCCCl)nc3ccccc32)cc1 |  | inactive: 4.42%
34 | Cc1ccc2c(c1)COc1c3ccc(C(=O)N[C@@H](CO)C(C)C)cc3nn1-2 |  | inactive: 0.865%
35 | Cc1c(NS(=O)(=O)c2cc(C(=O)N3CCCC(C)C3)ccc2Cl)c(=O)n(-c2ccccc2)n1C (centres undefined) |  | inactive: -13.5%
36 | CC(Oc1ccc(Cl)cc1Cl)C(=O)Nc1cccc(O)c1 (centres undefined) |  | inactive: -5.08%
37 | CCN(CC)N=Nc1ccc(C(=O)O)cc1 | inconclusive: 11.2 µM [activator, single point] | 
38 | COc1cc(NC(=S)NC2CC2)c(OC)cc1Cl | inconclusive: 20 µM [activator, single point] | 
39 | CCCCn1c(=O)c2c(nc3n2CCCN3Cc2ccccc2)n(C)c1=O |  | inactive: 3.09%
40 | CCOc1ccc2nc(-c3ccccc3)nc(SCC(=O)Nc3ncc(C)s3)c2c1 | inconclusive: 0.355 µM [activator, full curve, poor fit] | 
41 | COc1ccc(-c2nnc(Nc3ccc(CC(N)=O)cc3)c3ccccc23)cc1 | inconclusive: 11.2 µM [activator, single point] | 
42 | C/C(CC(=O)Nc1cccnc1)=N\NC(=O)c1ccc([N+](=O)[O-])c(Cl)c1 | inconclusive: 1.58 µM [activator, full curve, poor fit] | 
43 | CCCC(=O)NC(c1ccccc1Cl)c1ccc2cccnc2c1O (centres undefined) | active: 2.24 µM | 
44 | COc1ccc(-c2nc3n(n2)C(c2ccccc2)C2=C(CCCC2=O)N3)cc1OC (centres undefined) | inconclusive: 20 µM [activator, single point] | 
45 | O=C(NC(=S)NCCSc1ccccc1)c1cccnc1 | active: 10 µM | 
46 | Cc1cc(C)c(S(=O)(=O)NCCc2ccccc2)c(C)c1 |  | inactive: -1.71%
47 | Cc1ccc(C(=O)NCCc2ccccc2)cc1S(=O)(=O)N1CCOCC1 |  | inactive: 0.681%
48 | C=C1/C=C(\C)C(C)(O)CC(O)CC(=O)C(O)C(O)C(C)CC(C)OC(=O)/C(C)=C/CC/C=C/C(OC)C(O)CC(C)C1 (centres undefined) |  | inactive: -0.297%
49 | CC(=O)Nc1cccc(NS(=O)(=O)c2ccccc2[N+](=O)[O-])c1 |  | inactive: 1.5%
50 | Cc1nn(C/C(C#N)=N\O)c(C)[n+]1N | inconclusive: 20 µM [activator, single point] | 

Copied from above, compounds 34–50
Row | Structure (SMILES) | Potency | activity, positive = growth rescue
34 | Cc1ccc2c(c1)COc1c3ccc(C(=O)N[C@@H](CO)C(C)C)cc3nn1-2 |  | inactive: 0.865%
35 | Cc1c(NS(=O)(=O)c2cc(C(=O)N3CCCC(C)C3)ccc2Cl)c(=O)n(-c2ccccc2)n1C (centres undefined) |  | inactive: -13.5%
36 | CC(Oc1ccc(Cl)cc1Cl)C(=O)Nc1cccc(O)c1 (centres undefined) |  | inactive: -5.08%
37 | CCN(CC)N=Nc1ccc(C(=O)O)cc1 | inconclusive: 11.2 µM [activator, single point] | 
38 | COc1cc(NC(=S)NC2CC2)c(OC)cc1Cl | inconclusive: 20 µM [activator, single point] | 
39 | CCCCn1c(=O)c2c(nc3n2CCCN3Cc2ccccc2)n(C)c1=O |  | inactive: 3.09%
40 | CCOc1ccc2nc(-c3ccccc3)nc(SCC(=O)Nc3ncc(C)s3)c2c1 | inconclusive: 0.355 µM [activator, full curve, poor fit] | 
41 | COc1ccc(-c2nnc(Nc3ccc(CC(N)=O)cc3)c3ccccc23)cc1 | inconclusive: 11.2 µM [activator, single point] | 
42 | C/C(CC(=O)Nc1cccnc1)=N\NC(=O)c1ccc([N+](=O)[O-])c(Cl)c1 | inconclusive: 1.58 µM [activator, full curve, poor fit] | 
43 | CCCC(=O)NC(c1ccccc1Cl)c1ccc2cccnc2c1O (centres undefined) | active: 2.24 µM | 
44 | COc1ccc(-c2nc3n(n2)C(c2ccccc2)C2=C(CCCC2=O)N3)cc1OC (centres undefined) | inconclusive: 20 µM [activator, single point] | 
45 | O=C(NC(=S)NCCSc1ccccc1)c1cccnc1 | active: 10 µM | 
46 | Cc1cc(C)c(S(=O)(=O)NCCc2ccccc2)c(C)c1 |  | inactive: -1.71%
47 | Cc1ccc(C(=O)NCCc2ccccc2)cc1S(=O)(=O)N1CCOCC1 |  | inactive: 0.681%
48 | C=C1/C=C(\C)C(C)(O)CC(O)CC(=O)C(O)C(O)C(C)CC(C)OC(=O)/C(C)=C/CC/C=C/C(OC)C(O)CC(C)C1 (centres undefined) |  | inactive: -0.297%
49 | CC(=O)Nc1cccc(NS(=O)(=O)c2ccccc2[N+](=O)[O-])c1 |  | inactive: 1.5%
50 | Cc1nn(C/C(C#N)=N\O)c(C)[n+]1N | inconclusive: 20 µM [activator, single point] | 

Next part:

Row | Structure (SMILES) | Potency | activity, positive = growth rescue
51 | COc1ccccc1N1CCN(C(=O)c2ccc(CSc3ccccc3)cc2)CC1 |  | inactive: 8.7%
52 | O=S(=O)(/N=C(\Sc1ccccc1)c1ccccc1)c1ccc(Cl)cc1 | inconclusive: 20 µM [activator, single point] | 
53 | CCOCCCNC(=S)N(CCN(CC)CC)Cc1cc2cc3c(cc2[nH]c1=O)OCCO3 | inconclusive: 20 µM [activator, single point] | 
54 | COc1ccc(CCNC(=S)Nc2cccc(C)c2C)cc1 | inconclusive: 4.47 µM [activator, single point] | 
55 | C=CCN(Cc1ccco1)S(=O)(=O)c1ccc(Cl)cc1 | inconclusive: 3.98 µM [activator, single point] | 
56 | CC1CCCN(CCCNC(=O)c2ccc(NC(=O)C3=CSCCO3)cc2)C1 (centres undefined) | inconclusive: 20 µM [activator, single point] | 
57 | COc1cccc(/C=N/NC(=O)c2nc(-c3ccccc3)cc(-c3ccccc3)n2)c1O | active: 11.2 µM | 
58 | Cc1cc(-c2c(C)[nH]n(-c3ccc(Cl)cc3)c2=O)n[nH]1 | inconclusive: 20 µM [activator, single point] | 
59 | Cc1ccc(/C=C2\SC(N)=NC2=O)s1 |  | inactive: -7.63%
60 | COc1ccc(Cl)cc1NC(=O)CSc1ncnc2c1oc1ccccc12 | inconclusive: 12.6 µM [activator, partial curve] | 
61 | Nc1nonc1N1CCCCC1 | inconclusive: 12.6 µM [activator, single point] | 
62 | O=C(N/N=C/c1cc([N+](=O)[O-])ccc1O)/C(=C\c1cccs1)NC(=O)c1ccccc1 | active: 3.98 µM | 
63 | COc1ccc(Cl)cc1NC(=O)CCS(=O)(=O)c1ccc(C)cc1 |  | inactive: 1.09%
64 | NC(=S)N/N=C/c1ccc(-c2ccccc2)o1 | inconclusive: 20 µM [activator, single point] | 
65 | Cc1c(C(=O)N(Cc2cccc(Br)c2)C2CCS(=O)(=O)C2)oc2ccccc12 (centres undefined) | inconclusive: 3.98 µM [activator, single point] | 
66 | COc1ccccc1OCC(=O)NCC1CCCN(C(=O)c2ccccc2C(C)=O)C1 (centres undefined) |  | inactive: 3.05%
67 | CN(C)C(CNC(=O)c1cc(-c2ccco2)nc2ccccc12)c1ccccc1 (centres undefined) | active: 10 µM | 
68 | Cc1nn(C)cc1C(C(=O)NC1CCCCC1)N(C(=O)Cc1cccs1)c1ccc(Cl)cc1 (centres undefined) |  | inactive: 6.12%
69 | COc1ccc(C2=CSC(/N=C/c3ccc(F)cc3)=NN2)cc1 | inconclusive: 11.2 µM [activator, partial curve] | 
70 | CCC1=C(c2ccc(C)cc2)S(=O)(=O)N=C1N1CCC(C(=O)NCCCN2CCCCC2C)CC1 (centres undefined) | inconclusive: 20 µM [activator, single point] | 
71 | COC(=O)c1ccc(=O)c2nc3/c(=C/O)c(O)cc(=O)c3[nH]c12 | active: 3.16 µM | 
72 | CS(=O)(=O)c1cccc(C(=O)OCCCC(=O)c2ccccc2)c1 |  | inactive: -0.697%
73 | COCCNC(=O)c1nc2c(nnn2Cc2cc(C)ccc2C)c(=O)[nH]1 | inconclusive: 20 µM [activator, single point] | 
74 | CCCOc1nc2c(c(=O)n(C)c(=O)n2C)n1CC |  | inactive: 6.95%
